Test results published in PubChem BioAssay AID504834 (National Center for Advancing Translational Sciences (NCATS), 2011).
In all, about 320,000 compounds went through this assay and about 22,000 (6.9%) were called active. This list was built around the results that the source calls inconclusive (neither active nor inactive); the mix of calls is not that of the screen. Calls follow the shape of the dose curve; as a rule, active = well fitted inhibition curve with a large enough effect; inconclusive = small, poorly fitted or top-dose-only effect, or another doubt; inactive = no such curve, though single readings can be large or run the other way. Where the call is inconclusive, the potency comes from a doubtful curve fit.

assay: Primary qHTS for delayed death inhibitors of the malarial parasite plastid, 96 hour incubation; settings: P. falciparum luciferase reporter growth; series mostly up to 28.7 µM; activity change, negative = inhibition: at the top concentration
Method in brief: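 Parasite growth measured via integrated firefly luciferase reporter in P. falciparum. Infected erythrocytes at 2% hematocrit, 0.05% parasitemia final were treated 96 hours at 37 C under 5% CO2, and luminescence was read.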
% is scaled to controls: 0 for no effect and ±100 for the full control effect; potency is read from the fitted curve at half-maximal effect.

| SMILES | activity change, negative = inhibition | Potency |
| --- | --- | --- |
| O=C1CSC(=S)N1c1ccc(F)cc1 | inactive: 19% |  |
| CCOC(=O)C1=NN(C(C)=O)C2(CC(=O)N(c3ccc(C)c(C)c3)C2=O)C1 (stereo unspecified) | inactive: 59.9% |  |
| COc1ccc(CNC(=O)C(=O)NCC2OCCN2S(=O)(=O)c2ccc(F)cc2)cc1 (stereo unspecified) | inactive: 63% |  |
| COc1cc(F)c(C2=CC(=O)C[C@H](c3ccc(Cl)cc3)C2)cc1F |  | inconclusive: 11.7 µM [inhibitor, single point] |
| COc1ccc(-n2ccnc2SCC(=O)NC2CCCC2)cc1 | inactive: -1.24% |  |
| O=C(CCCC(=O)N(CC(=O)NC1CCCC1)C1CCCC1)Nc1ccccn1 |  | inconclusive: 18.5 µM [inhibitor, single point] |
| COc1cccc(CN(C(=O)c2ccco2)C(C(=O)NC2CCCC2)c2cccnc2)c1 (stereo unspecified) | inactive: 6.55% |  |
| Cn1c(CCC(=O)Nc2ccccc2F)nnc1SCC(=O)Nc1ccccc1Cl | inactive: -47.3% |  |
| O=C(C[n+]1cccc2ccccc21)c1ccc(Br)cc1 |  | inconclusive: 11.7 µM [inhibitor, partial curve, poor fit] |
| O=C1NC(=O)C(=Cc2ccc(N3CCN(C(=O)c4ccccc4)CC3)c([N+](=O)[O-])c2)C(=O)N1 |  | inconclusive: 18.5 µM [inhibitor, single point] |
| OC(COc1ccc(Cl)cc1)CSc1ccccn1 (stereo unspecified) |  | inconclusive: 11.7 µM [inhibitor, partial curve, poor fit] |
| CCOC(=O)N1CCN(C(=O)CSCC(=O)Nc2nc(-c3ccc(-c4ccccc4)cc3)cs2)CC1 |  | active: 10.4 µM |
| O=C(COc1ccccc1)Nc1cc(NC(=O)COc2ccccc2)cc(C(=O)O)c1 |  | inconclusive: 18.5 µM [inhibitor, single point] |
| Cc1[nH]c(C)c(C(=O)/C=C/c2ccc([N+](=O)[O-])cc2)c1C | inactive: -22.2% |  |
| O=C(COc1ccc2c3c(c(=O)oc2c1)CCC3)NCc1ccncc1 |  | inconclusive: 18.5 µM [inhibitor, single point] |
| CC1(C(=O)NCCN2CCOCC2)C=CCN1C(=O)c1ccccc1 (stereo unspecified) | inactive: 0.152% |  |
| COc1cc(/C=C/c2[nH]c(=O)[nH]c(=O)c2[N+](=O)[O-])cc(OC)c1O |  | inconclusive: 8.28 µM [inhibitor, partial curve] |
| COc1ccccc1NC(=O)c1c[nH]c2ccccc12 | inactive: 56.8% |  |
| O=C(Nc1nnc(-c2ccncc2)o1)c1ccc2ccccc2c1 |  | inconclusive: 9.28 µM [inhibitor, single point] |
| Cc1ccc(C(=O)O)cc1NC(=S)NCCc1ccccc1 |  | inconclusive: 18.5 µM [inhibitor, single point] |
| O=[N+]([O-])c1ccc(S(=O)(=O)Nc2cccc(-c3ccc(N4CCCC4)nn3)c2)cc1 |  | inconclusive: 0.104 µM [inhibitor, full curve] |

Another view of some results above:
O=C(CCCC(=O)N(CC(=O)NC1CCCC1)C1CCCC1)Nc1ccccn1
  Potency: inconclusive: 18.5 µM [inhibitor, single point]
CC1(C(=O)NCCN2CCOCC2)C=CCN1C(=O)c1ccccc1 (stereo unspecified)
  activity change, negative = inhibition: inactive: 0.152%
